# In article PMC8384837:
# Positions count from the first letter of the chain named. Some of the results follow. For some assays here: At the low end of the ranking the order means little. For some assays here: The source does not settle which construct or isoform was used.
# Columns and labels:
# Details in all cases: yeast three-hybrid, YBZ-1, SC-Leu-His + 0.5 mM 3-AT, 4 days
# [1] = target: T1, PUM1 PUF domain R4-VNG N971V + H972N + Q975G (UniProt Q14671)
# T1 sequence: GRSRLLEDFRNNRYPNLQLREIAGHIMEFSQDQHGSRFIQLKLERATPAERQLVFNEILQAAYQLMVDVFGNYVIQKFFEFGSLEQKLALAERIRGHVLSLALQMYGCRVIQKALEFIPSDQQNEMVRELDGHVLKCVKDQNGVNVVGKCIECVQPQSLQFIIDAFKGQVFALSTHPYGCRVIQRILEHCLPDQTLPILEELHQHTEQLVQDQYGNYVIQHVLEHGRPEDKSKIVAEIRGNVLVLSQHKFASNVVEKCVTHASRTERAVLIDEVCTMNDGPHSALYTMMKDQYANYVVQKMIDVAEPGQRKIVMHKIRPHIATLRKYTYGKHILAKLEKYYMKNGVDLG
# [2] = target: T2, PUM1 PUF domain R4-VNS N971V + H972N + Q975S (UniProt Q14671)
# T2 sequence: T1 sequence with G148S
# [3] = target: T3, PUM1 PUF domain R4-VNT N971V + H972N + Q975T (UniProt Q14671)
# T3 sequence: T1 sequence with G148T
# [4] = target: T4, PUM1 PUF domain R4-VNV N971V + H972N + Q975V (UniProt Q14671)
# T4 sequence: T1 sequence with G148V
# [5] = target: T5, PUM1 PUF domain R4-VPA N971V + H972P + Q975A (UniProt Q14671)
# T5 sequence: T1 sequence with N145P, G148A
# [6] = target: T6, PUM1 PUF domain R4-VPC N971V + H972P + Q975C (UniProt Q14671)
# T6 sequence: T1 sequence with N145P, G148C
# [7] = target: T7, PUM1 PUF domain R4-VPG N971V + H972P + Q975G (UniProt Q14671)
# T7 sequence: T1 sequence with N145P
# [8] = target: T8, PUM1 PUF domain R4-VPS N971V + H972P + Q975S (UniProt Q14671)
# T8 sequence: T1 sequence with N145P, G148S
# [9] = target: T9, PUM1 PUF domain R4-VPT N971V + H972P + Q975T (UniProt Q14671)
# T9 sequence: T1 sequence with N145P, G148T
# [10] = target: T10, PUM1 PUF domain R4-VRG N971V + H972R + Q975G (Homo sapiens) (UniProt Q14671)
# T10 sequence: T1 sequence with N145R
# [11] = target: T11, PUM1 PUF domain R4-VRT N971V + H972R + Q975T (UniProt Q14671)
# T11 sequence: T1 sequence with N145R, G148T
# [12] = target: T12, PUM1 PUF domain R4-VSI N971V + H972S + Q975I (UniProt Q14671)
# T12 sequence: T1 sequence with N145S, G148I
# [13] = target: T13, PUM1 PUF domain R4-VSL N971V + H972S + Q975L (UniProt Q14671)
# T13 sequence: T1 sequence with N145S, G148L
# [14] = target: T14, PUM1 PUF domain R4-WAA N971W + H972A + Q975A (UniProt Q14671)
# T14 sequence: T1 sequence with V144W, N145A, G148A
# [15] = target: T15, PUM1 PUF domain R4-WAC N971W + H972A + Q975C (UniProt Q14671)
# T15 sequence: T1 sequence with V144W, N145A, G148C
# [16] = target: T16, PUM1 PUF domain R4-WAG N971W + H972A + Q975G (UniProt Q14671)
# T16 sequence: T1 sequence with V144W, N145A
# [17] = target: T17, PUM1 PUF domain R4-WAR N971W + H972A + Q975R (UniProt Q14671)
# T17 sequence: T1 sequence with V144W, N145A, G148R
# [18] = target: T18, PUM1 PUF domain R4-WAS N971W + H972A + Q975S (UniProt Q14671)
# T18 sequence: T1 sequence with V144W, N145A, G148S
# [19] = target: T19, PUM1 PUF domain R4-WAV N971W + H972A + Q975V (UniProt Q14671)
# T19 sequence: T1 sequence with V144W, N145A, G148V
# [20] = target: T20, PUM1 PUF domain R4-WAW N971W + H972A + Q975W (UniProt Q14671)
# T20 sequence: T1 sequence with V144W, N145A, G148W
# [21] = target: T21, PUM1 PUF domain R4-WFG N971W + H972F + Q975G (UniProt Q14671)
# T21 sequence: T1 sequence with V144W, N145F
# [22] = target: T22, PUM1 PUF domain R4-WGA N971W + H972G + Q975A (UniProt Q14671)
# T22 sequence: T1 sequence with V144W, N145G, G148A
# [23] = target: T23, PUM1 PUF domain R4-WGC N971W + H972G + Q975C (UniProt Q14671)
# T23 sequence: T1 sequence with V144W, N145G, G148C
# [24] = target: T24, PUM1 PUF domain R4-WGD N971W + H972G + Q975D (UniProt Q14671)
# T24 sequence: T1 sequence with V144W, N145G, G148D
# [25] = target: T25, PUM1 PUF domain R4-WGM N971W + H972G + Q975M (UniProt Q14671)
# T25 sequence: T1 sequence with V144W, N145G, G148M
# [26] = target: T26, PUM1 PUF domain R4-WGR N971W + H972G + Q975R (Homo sapiens) (UniProt Q14671)
# T26 sequence: T1 sequence with V144W, N145G, G148R
# [27] = target: T27, PUM1 PUF domain R4-WGS N971W + H972G + Q975S (Homo sapiens) (UniProt Q14671)
# T27 sequence: T1 sequence with V144W, N145G, G148S
# [28] = target: T28, PUM1 PUF domain R4-WGT N971W + H972G + Q975T (Homo sapiens) (UniProt Q14671)
# T28 sequence: T1 sequence with V144W, N145G, G148T
# [29] = target: T29, PUM1 PUF domain R4-WGV N971W + H972G + Q975V (UniProt Q14671)
# T29 sequence: T1 sequence with V144W, N145G, G148V
# [30] = target: T30, PUM1 PUF domain R4-WGW N971W + H972G + Q975W (UniProt Q14671)
# T30 sequence: T1 sequence with V144W, N145G, G148W
# [31] = target: T31, PUM1 PUF domain R4-WSA N971W + H972S + Q975A (UniProt Q14671)
# T31 sequence: T1 sequence with V144W, N145S, G148A
# [32] = target: T32, PUM1 PUF domain R4-WSC N971W + H972S + Q975C (UniProt Q14671)
# T32 sequence: T1 sequence with V144W, N145S, G148C
# [33] = target: T33, PUM1 PUF domain R4-WSG N971W + H972S + Q975G (UniProt Q14671)
# T33 sequence: T1 sequence with V144W, N145S
# [34] = target: T34, PUM1 PUF domain R4-WSH N971W + H972S + Q975H (Homo sapiens) (UniProt Q14671)
# T34 sequence: T1 sequence with V144W, N145S, G148H
# [35] = target: T35, PUM1 PUF domain R4-WSR N971W + H972S + Q975R (UniProt Q14671)
# T35 sequence: T1 sequence with V144W, N145S, G148R
# [36] = target: T36, PUM1 PUF domain R4-WSS N971W + H972S + Q975S (UniProt Q14671)
# T36 sequence: T1 sequence with V144W, N145S, G148S
# [37] = target: T37, PUM1 PUF domain R4-WST N971W + H972S + Q975T (UniProt Q14671)
# T37 sequence: T1 sequence with V144W, N145S, G148T
# [38] = target: T38, PUM1 PUF domain R4-WSW N971W + H972S + Q975W (UniProt Q14671)
# T38 sequence: T1 sequence with V144W, N145S, G148W
# [39] = target: T39, PUM1 PUF domain R4-WSY N971W + H972S + Q975Y (UniProt Q14671)
# T39 sequence: T1 sequence with V144W, N145S, G148Y
# [40] = target: T40, PUM1 PUF domain R5-PHQ R6-SWD C1007P + R1008H + N1043S + Y1044W + Q1047D (UniProt Q14671)
# T40 sequence: T1 sequence with V144N, N145H, G148Q, C180P, R181H, N216S, Y217W, Q220D
# [41] = target: T41, PUM1 PUF domain R6-SWD R7-NPG N1043S + Y1044W + Q1047D + S1079N + N1080P + E1083G (Homo sapiens) (UniProt Q14671)
# T41 sequence: T1 sequence with V144N, N145H, G148Q, N216S, Y217W, Q220D, S252N, N253P, E256G
sequence,measurement,setting,value
GGCUAGAACUAGUGGAUCCCCCGGCGCCCGGCGGCUCGAGCCCGGGUAAGUGUAGAUAGUCUGCAUGCCGCCGGGCGCCAUGCCUGCAGGUCGACUCUAGAAAACAUG,binding signal (log2 enrichment (interaction score)),[1],< -6.51
same,binding signal (log2 enrichment (interaction score)),[2],< -5.92
same,binding signal (log2 enrichment (interaction score)),[3],< -5.67
same,binding signal (log2 enrichment (interaction score)),[4],< -6.96
same,binding signal (log2 enrichment (interaction score)),[5],< -8.41
same,binding signal (log2 enrichment (interaction score)),[6],< -7.41
same,binding signal (log2 enrichment (interaction score)),[7],< -9.45
same,binding signal (log2 enrichment (interaction score)),[8],< -7.96
same,binding signal (log2 enrichment (interaction score)),[9],< -6.69
same,binding signal (log2 enrichment (interaction score)),[10],-3.93
same,binding signal (log2 enrichment (interaction score)),[11],< -5.44
same,binding signal (log2 enrichment (interaction score)),[12],< -5.94
same,binding signal (log2 enrichment (interaction score)),[13],< -8.33
same,binding signal (log2 enrichment (interaction score)),[14],< -6.12
same,binding signal (log2 enrichment (interaction score)),[15],< -6.19
same,binding signal (log2 enrichment (interaction score)),[16],< -6.24
same,binding signal (log2 enrichment (interaction score)),[17],< -7.09
same,binding signal (log2 enrichment (interaction score)),[18],< -6.34
same,binding signal (log2 enrichment (interaction score)),[19],< -7.95
same,binding signal (log2 enrichment (interaction score)),[20],< -7.08
same,binding signal (log2 enrichment (interaction score)),[21],< -5.92
same,binding signal (log2 enrichment (interaction score)),[22],< -5.39
same,binding signal (log2 enrichment (interaction score)),[23],< -6.79
same,binding signal (log2 enrichment (interaction score)),[24],< -5.24
same,binding signal (log2 enrichment (interaction score)),[25],< -5.67
same,binding signal (log2 enrichment (interaction score)),[26],-0.56
same,binding signal (log2 enrichment (interaction score)),[27],-1.78
same,binding signal (log2 enrichment (interaction score)),[28],-1.54
same,binding signal (log2 enrichment (interaction score)),[29],-6.5
same,binding signal (log2 enrichment (interaction score)),[30],< -6.54
same,binding signal (log2 enrichment (interaction score)),[31],< -6.64
same,binding signal (log2 enrichment (interaction score)),[32],< -5.98
same,binding signal (log2 enrichment (interaction score)),[33],< -8.28
same,binding signal (log2 enrichment (interaction score)),[34],-1.65
same,binding signal (log2 enrichment (interaction score)),[35],< -6.75
same,binding signal (log2 enrichment (interaction score)),[36],< -7.14
same,binding signal (log2 enrichment (interaction score)),[37],< -7.04
same,binding signal (log2 enrichment (interaction score)),[38],< -7.31
same,binding signal (log2 enrichment (interaction score)),[39],< -5.92
same,binding signal (log2 enrichment (interaction score)),[40],< -6.6
same,binding signal (log2 enrichment (interaction score)),[41],-0.29

# A different layout for part of the listing above:
sequence	measurement	setting	value
GGCUAGAACUAGUGGAUCCCCCGGCGCCCGGCGGCUCGAGCCCGGGUAAGUGUAGAUAGUCUGCAUGCCGCCGGGCGCCAUGCCUGCAGGUCGACUCUAGAAAACAUG	binding signal (log2 enrichment (interaction score))	[39]	< -5.92
same	binding signal (log2 enrichment (interaction score))	[41]	-0.29
